These are yes or no findings as the source states them, for the method shown. In cells and extracts the contact can be indirect. Some entries that bind do so weakly or less than the wild type. Tags and fused reporters may be left off the sequences shown.
Molecular target: GST-β-catenin fusion protein (UniProt P35222)
Assay: pull-down; GST or GST-β-catenin fusion proteins used to pull down GFP-tagged full-length MAGI3 from transfected COS-7 cell lysates; western blot with anti-GFP; only the target purified

Sequences of proteins named here, by UniProt entry; tags and fusion partners are left off.
UniProt P35222: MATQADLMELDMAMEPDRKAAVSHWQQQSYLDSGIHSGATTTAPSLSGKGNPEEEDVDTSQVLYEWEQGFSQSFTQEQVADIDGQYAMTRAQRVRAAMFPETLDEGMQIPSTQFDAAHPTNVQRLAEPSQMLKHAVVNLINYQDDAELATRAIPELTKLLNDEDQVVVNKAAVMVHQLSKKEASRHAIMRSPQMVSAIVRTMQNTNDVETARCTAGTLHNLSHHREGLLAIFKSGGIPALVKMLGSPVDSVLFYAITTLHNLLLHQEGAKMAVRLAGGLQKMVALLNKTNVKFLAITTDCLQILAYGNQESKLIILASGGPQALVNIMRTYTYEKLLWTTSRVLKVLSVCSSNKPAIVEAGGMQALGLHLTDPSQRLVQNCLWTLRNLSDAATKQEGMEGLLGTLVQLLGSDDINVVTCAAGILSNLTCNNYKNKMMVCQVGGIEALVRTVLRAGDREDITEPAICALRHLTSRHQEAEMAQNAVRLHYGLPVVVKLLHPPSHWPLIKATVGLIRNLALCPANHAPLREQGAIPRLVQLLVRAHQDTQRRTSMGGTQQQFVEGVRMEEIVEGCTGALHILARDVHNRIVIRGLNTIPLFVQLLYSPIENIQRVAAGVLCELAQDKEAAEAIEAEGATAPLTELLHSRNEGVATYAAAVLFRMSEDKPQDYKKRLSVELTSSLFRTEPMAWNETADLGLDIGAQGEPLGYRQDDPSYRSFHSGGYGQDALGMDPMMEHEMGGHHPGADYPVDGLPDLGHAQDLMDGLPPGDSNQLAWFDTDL

binding: binds
B1: GFP-tagged full-length MAGI3 (protein, UniProt Q5TCQ9 1-1481)
chain: MSKTLKKKKHWLSKVQECAVSWAGPPGDFGAEIRGGAERGEFPYLGRLREEPGGGTCCVVSGKAPSPGDVLLEVNGTPVSGLTNRDTLAVIRHFREPIRLKTVKPGKVINKDLRHYLSLQFQKGSIDHKLQQVIRDNLYLRTIPCTTRAPRDGEVPGVDYNFISVEQFKALEESGALLESGTYDGNFYGTPKPPAEPSPFQPDPVDQVLFDNEFDAESQRKRTTSVSKMERMDSSLPEEEEDEDKEAINGSGNAENRERHSESSDWMKTVPSYNQTNSSMDFRNYMMRDETLEPLPKNWEMAYTDTGMIYFIDHNTKTTTWLDPRLCKKAKAPEDCEDGELPYGWEKIEDPQYGTYYVDHLNQKTQFENPVEEAKRKKQLGQVEIGSSKPDMEKSHFTRDPSQLKGVLVRASLKKSTMGFGFTIIGGDRPDEFLQVKNVLKDGPAAQDGKIAPGDVIVDINGNCVLGHTHADVVQMFQLVPVNQYVNLTLCRGYPLPDDSEDPVVDIVAATPVINGQSLTKGETCMNPQDFKPGAMVLEQNGKSGHTLTGDGLNGPSDASEQRVSMASSGSSQPELVTIPLIKGPKGFGFAIADSPTGQKVKMILDSQWCQGLQKGDIIKEIYHQNVQNLTHLQVVEVLKQFPVGADVPLLILRGGPPSPTKTAKMKTDKKENAGSLEAINEPIPQPMPFPPSIIRSGSPKLDPSEVYLKSKTLYEDKPPNTKDLDVFLRKQESGFGFRVLGGDGPDQSIYIGAIIPLGAAEKDGRLRAADELMCIDGIPVKGKSHKQVLDLMTTAARNGHVLLTVRRKIFYGEKQPEDDSSQAFISTQNGSPRLNRAEVPARPAPQEPYDVVLQRKENEGFGFVILTSKNKPPPGVIPHKIGRVIEGSPADRCGKLKVGDHISAVNGQSIVELSHDNIVQLIKDAGVTVTLTVIAEEEHHGPPSGTNSARQSPALQHRPMGQSQANHIPGDRSALEGEIGKDVSTSYRHSWSDHKHLAQPDTAVISVVGSRHNQNLGCYPVELERGPRGFGFSLRGGKEYNMGLFILRLAEDGPAIKDGRIHVGDQIVEINGEPTQGITHTRAIELIQAGGNKVLLLLRPGTGLIPDHGDWDINNPSSSNVIYDEQSPLPPSSHFASIFEESHVPVIEESLRVQICEKAEELKDIVPEKKSTLNENQPEIKHQSLLQKNVSKRDPPSSHGHSNKKNLLKVENGVTRRGRSVSPKKPASQHSEEHLDKIPSPLKNNPKRRPRDQSLSPSKGENKSCQVSTRAGSGQDQCRKSRGRSASPKKQQKIEGSKAPSNAEAKLLEGKSRRIAGYTGSNAEQIPDGKEKSDVIRKDAKQNQLEKSRTRSPEKKIKRMVEKSLPSKMTNKTTSKEVSENEKGKKVTTGETSSSNDKIGENVQLSEKRLKQEPEEKVVSNKTEDHKGKELEAADKNKETGRFKPESSSPVKKTLITPGPWKVPSGNKVTGTIGMAEKRQ
